In the supplement of paper PMC10849652:
The list shows a part of the results.

Sequences of proteins named here, by UniProt entry; tags and fusion partners are left off. A change or cut given only in a name is not applied to a line headed by its entry.
UniProt Q15102: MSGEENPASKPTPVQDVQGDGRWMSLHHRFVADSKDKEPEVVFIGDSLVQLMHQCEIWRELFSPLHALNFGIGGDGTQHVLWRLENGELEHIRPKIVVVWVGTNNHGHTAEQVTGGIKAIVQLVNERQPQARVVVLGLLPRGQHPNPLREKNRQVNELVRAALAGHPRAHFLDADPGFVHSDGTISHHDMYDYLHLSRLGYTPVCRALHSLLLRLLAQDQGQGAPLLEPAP
UniProt Q9H1P3, whole entry, looked up: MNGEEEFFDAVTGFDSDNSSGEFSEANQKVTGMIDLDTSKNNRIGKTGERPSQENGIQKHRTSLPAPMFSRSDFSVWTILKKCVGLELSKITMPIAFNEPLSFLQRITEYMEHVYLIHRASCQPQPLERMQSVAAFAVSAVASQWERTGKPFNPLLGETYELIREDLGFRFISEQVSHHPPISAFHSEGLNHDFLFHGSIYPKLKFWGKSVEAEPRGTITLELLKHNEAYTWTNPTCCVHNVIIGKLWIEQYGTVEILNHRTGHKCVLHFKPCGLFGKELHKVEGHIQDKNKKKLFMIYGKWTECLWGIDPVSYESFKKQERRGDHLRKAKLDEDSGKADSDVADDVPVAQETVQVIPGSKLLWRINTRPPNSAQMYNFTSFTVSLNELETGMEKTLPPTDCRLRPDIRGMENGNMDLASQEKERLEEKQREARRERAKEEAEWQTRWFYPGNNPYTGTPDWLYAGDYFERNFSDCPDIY
UniProt Q96G74: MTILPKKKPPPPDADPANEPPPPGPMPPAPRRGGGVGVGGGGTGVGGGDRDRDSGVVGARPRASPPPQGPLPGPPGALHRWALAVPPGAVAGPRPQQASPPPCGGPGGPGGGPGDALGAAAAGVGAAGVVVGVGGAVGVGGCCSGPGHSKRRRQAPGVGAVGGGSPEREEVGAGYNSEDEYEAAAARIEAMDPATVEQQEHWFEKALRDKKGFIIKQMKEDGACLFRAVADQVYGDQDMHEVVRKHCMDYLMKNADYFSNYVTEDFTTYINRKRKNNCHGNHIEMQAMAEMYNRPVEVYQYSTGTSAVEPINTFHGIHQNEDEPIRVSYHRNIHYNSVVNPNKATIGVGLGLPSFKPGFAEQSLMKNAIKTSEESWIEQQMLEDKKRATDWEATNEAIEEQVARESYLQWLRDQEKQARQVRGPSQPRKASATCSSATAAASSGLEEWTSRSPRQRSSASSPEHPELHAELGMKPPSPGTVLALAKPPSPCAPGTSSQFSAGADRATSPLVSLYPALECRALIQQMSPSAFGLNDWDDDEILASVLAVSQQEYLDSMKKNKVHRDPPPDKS
UniProt Q13416: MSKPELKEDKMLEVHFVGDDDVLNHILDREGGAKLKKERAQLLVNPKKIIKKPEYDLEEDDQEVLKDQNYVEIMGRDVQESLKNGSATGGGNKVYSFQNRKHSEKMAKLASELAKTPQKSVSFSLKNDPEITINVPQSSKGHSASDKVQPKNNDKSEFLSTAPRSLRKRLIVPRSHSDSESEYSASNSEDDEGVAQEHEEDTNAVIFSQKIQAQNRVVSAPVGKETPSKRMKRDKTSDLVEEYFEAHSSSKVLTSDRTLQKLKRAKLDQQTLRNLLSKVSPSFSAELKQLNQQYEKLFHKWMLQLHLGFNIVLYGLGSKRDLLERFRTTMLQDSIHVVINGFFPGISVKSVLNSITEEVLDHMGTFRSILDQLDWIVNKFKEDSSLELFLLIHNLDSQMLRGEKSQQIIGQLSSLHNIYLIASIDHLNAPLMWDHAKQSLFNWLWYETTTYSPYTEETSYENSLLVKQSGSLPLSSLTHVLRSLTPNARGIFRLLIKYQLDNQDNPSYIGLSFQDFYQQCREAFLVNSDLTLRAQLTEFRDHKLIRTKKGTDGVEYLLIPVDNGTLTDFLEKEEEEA
UniProt Q01968: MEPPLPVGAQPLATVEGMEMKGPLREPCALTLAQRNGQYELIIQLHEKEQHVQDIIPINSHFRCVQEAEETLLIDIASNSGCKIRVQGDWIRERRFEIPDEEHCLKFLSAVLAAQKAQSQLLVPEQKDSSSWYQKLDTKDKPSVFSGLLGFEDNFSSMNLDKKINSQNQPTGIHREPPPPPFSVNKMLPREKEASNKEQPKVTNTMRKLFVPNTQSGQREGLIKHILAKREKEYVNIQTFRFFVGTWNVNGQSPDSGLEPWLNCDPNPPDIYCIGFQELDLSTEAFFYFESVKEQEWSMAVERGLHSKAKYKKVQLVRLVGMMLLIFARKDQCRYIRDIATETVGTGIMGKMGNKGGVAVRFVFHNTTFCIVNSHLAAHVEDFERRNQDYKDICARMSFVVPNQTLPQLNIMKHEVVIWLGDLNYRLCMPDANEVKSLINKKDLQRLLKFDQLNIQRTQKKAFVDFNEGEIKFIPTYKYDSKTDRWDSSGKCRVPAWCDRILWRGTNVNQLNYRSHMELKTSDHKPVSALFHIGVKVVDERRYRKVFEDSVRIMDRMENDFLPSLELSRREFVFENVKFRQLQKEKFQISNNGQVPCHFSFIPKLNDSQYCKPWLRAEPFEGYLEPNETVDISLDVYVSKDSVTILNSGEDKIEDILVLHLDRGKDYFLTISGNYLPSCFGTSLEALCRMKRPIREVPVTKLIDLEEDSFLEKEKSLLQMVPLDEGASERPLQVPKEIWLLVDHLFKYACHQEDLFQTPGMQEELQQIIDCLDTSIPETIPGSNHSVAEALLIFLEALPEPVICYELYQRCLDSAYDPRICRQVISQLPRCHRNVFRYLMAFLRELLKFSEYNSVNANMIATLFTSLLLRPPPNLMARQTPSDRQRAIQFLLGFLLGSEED
UniProt P68402: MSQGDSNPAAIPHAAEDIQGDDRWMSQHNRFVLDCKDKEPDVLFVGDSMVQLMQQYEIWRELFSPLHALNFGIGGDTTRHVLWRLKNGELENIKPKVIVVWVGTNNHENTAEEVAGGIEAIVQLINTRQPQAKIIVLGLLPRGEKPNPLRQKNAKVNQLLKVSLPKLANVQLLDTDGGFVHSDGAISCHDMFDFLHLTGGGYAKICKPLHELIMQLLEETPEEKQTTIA
UniProt Q99571: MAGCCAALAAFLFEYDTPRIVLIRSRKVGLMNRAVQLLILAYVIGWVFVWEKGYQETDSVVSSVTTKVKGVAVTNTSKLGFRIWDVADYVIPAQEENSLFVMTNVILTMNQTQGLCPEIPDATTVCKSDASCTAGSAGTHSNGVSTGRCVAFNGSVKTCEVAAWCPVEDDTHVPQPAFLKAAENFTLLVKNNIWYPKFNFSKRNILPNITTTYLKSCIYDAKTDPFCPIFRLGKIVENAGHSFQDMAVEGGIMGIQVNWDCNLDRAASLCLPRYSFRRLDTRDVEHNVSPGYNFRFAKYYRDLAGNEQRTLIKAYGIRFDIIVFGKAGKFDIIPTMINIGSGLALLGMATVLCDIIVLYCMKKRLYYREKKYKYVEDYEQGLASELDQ
UniProt O95340: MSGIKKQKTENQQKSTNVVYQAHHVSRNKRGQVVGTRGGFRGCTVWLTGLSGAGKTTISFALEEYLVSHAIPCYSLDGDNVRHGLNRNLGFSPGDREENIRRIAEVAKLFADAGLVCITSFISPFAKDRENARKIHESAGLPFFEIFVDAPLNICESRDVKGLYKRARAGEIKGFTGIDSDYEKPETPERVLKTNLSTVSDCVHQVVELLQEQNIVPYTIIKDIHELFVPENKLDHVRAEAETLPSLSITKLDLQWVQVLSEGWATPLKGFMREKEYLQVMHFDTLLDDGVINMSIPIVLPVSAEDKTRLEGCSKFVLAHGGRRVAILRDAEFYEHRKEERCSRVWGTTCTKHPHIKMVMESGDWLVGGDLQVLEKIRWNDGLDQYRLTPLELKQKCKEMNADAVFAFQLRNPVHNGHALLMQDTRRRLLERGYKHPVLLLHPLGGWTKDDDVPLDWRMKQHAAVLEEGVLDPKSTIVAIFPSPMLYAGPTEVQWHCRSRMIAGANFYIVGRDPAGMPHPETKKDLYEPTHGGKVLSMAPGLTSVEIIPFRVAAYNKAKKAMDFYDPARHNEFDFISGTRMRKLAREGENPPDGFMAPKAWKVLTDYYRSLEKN
UniProt O60829: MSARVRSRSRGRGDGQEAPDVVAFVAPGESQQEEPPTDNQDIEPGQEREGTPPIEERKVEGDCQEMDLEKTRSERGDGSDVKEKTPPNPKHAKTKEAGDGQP
UniProt Q13153, whole entry, looked up: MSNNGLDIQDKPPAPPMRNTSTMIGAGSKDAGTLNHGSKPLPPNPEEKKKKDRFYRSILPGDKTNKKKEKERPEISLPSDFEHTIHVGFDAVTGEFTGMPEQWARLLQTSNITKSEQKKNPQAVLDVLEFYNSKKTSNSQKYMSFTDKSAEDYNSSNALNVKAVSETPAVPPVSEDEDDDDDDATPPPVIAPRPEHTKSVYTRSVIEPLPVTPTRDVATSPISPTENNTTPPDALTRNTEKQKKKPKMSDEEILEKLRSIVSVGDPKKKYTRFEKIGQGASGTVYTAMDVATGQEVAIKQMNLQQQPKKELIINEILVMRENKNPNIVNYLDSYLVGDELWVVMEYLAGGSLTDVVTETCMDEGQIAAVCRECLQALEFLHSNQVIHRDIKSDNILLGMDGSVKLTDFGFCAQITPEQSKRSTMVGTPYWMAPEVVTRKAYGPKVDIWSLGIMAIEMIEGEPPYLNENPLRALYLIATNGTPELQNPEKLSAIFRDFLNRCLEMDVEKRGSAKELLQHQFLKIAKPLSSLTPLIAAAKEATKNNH
UniProt O15504: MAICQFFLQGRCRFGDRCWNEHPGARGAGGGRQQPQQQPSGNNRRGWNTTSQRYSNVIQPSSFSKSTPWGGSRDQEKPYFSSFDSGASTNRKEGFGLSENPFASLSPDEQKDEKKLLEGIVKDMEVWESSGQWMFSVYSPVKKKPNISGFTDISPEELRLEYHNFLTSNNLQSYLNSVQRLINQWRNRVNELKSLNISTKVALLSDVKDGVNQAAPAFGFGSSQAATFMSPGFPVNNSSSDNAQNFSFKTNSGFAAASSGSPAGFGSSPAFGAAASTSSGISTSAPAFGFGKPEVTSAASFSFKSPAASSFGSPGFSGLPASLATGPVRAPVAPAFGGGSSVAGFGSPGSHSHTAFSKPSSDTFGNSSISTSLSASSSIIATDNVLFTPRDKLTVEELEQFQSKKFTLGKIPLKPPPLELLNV
UniProt Q96CV9, whole entry, looked up: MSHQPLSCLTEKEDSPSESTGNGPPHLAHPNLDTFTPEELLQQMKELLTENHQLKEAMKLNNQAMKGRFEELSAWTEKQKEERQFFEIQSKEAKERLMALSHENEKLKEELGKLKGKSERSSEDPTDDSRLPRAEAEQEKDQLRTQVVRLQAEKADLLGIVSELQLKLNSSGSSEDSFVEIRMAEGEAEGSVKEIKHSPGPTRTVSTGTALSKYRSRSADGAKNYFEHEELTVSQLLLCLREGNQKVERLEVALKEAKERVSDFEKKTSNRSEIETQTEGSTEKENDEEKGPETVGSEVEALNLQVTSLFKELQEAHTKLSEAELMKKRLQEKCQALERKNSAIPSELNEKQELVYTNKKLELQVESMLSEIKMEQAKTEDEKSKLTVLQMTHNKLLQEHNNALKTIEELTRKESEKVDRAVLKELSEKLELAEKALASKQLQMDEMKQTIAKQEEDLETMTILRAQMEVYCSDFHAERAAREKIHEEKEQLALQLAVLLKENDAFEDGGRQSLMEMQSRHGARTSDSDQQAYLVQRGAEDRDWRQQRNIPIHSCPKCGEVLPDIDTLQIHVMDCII
UniProt O15381: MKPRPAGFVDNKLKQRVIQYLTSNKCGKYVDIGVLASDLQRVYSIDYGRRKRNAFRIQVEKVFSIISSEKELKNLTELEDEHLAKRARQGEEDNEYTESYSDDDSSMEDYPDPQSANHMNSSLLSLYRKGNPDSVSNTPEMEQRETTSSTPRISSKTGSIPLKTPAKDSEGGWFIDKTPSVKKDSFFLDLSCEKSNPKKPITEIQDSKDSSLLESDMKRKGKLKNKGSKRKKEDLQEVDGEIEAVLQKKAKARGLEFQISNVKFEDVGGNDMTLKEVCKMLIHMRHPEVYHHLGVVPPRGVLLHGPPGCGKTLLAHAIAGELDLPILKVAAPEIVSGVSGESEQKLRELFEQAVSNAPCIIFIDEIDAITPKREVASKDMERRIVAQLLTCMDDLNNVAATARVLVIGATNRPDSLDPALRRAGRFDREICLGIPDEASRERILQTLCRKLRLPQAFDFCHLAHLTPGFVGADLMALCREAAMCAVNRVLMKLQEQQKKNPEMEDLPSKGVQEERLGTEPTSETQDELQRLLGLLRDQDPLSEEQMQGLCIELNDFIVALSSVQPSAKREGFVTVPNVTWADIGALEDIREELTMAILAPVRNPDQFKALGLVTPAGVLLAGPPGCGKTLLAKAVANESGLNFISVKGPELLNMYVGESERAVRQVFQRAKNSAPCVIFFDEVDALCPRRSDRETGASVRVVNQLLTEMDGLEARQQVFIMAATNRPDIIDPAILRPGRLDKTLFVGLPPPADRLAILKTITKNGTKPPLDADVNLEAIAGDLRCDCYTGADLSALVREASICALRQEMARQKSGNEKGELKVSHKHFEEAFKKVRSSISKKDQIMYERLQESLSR

Tests used:
Experiment in all cases: log2 fold change, soluble protein after heating vs DMSO (PISA); higher = thermal stabilisation; K562 lysate, 10 uM; active = over 0.2 and 3.5 SD of the protein, either way, in both replicates (recomputed)
lapatinib = compound: CS(=O)(=O)CCNCc1ccc(-c2ccc3ncnc(Nc4ccc(OCc5cccc(F)c5)c(Cl)c4)c3c2)o1 [lapatinib]
Method in brief: (§1)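 The values are log-two fold changes in thermal stability compared with solvent controls and come from duplicates. They were obtained by TMTpro 16plex LC-MS/MS, with channel sums equalised, on the supernatant after 21,000xg for 90 min. That supernatant came from crude K562 extract at 1 mg/mL protein treated with 10 μM compound for 30 min, heated for 3 min across 48°C-58°C, pooled and brought to 0.5% NP-40 at 4°C.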

pictilisib = compound: CS(=O)(=O)N1CCN(Cc2cc3nc(-c4cccc5[nH]ncc45)nc(N4CCOCC4)c3s2)CC1 [pictilisib]
Method in brief: as §1

crizotinib = compound: C[C@@H](Oc1cc(-c2cnn(C3CCNCC3)c2)cnc1N)c1c(Cl)ccc(F)c1Cl [crizotinib]
Method in brief: as §1

[1] = compound: C[C@H](C1=CC=C(C=C1)C(=O)NC2=C3C=CNC3=NC=C2)N
Method in brief: as §1

duvelisib = compound: C[C@H](Nc1ncnc2nc[nH]c12)c1cc2cccc(Cl)c2c(=O)n1-c1ccccc1 [duvelisib]
Method in brief: as §1

gandotinib = compound: Cc1cc(Nc2cc(CN3CCOCC3)c3nc(C)c(Cc4ccc(Cl)cc4F)n3n2)n[nH]1 [gandotinib]
Method in brief: as §1

tozasertib = compound: Cc1cc(Nc2cc(N3CCN(C)CC3)nc(Sc3ccc(NC(=O)C4CC4)cc3)n2)n[nH]1 [tozasertib]
Method in brief: as §1

doramapimod = compound: Cc1ccc(-n2nc(C(C)(C)C)cc2NC(=O)Nc2ccc(OCCN3CCOCC3)c3ccccc23)cc1 [doramapimod]
Method in brief: as §1

bafetinib = compound: Cc1ccc(NC(=O)c2ccc(CN3CC[C@H](N(C)C)C3)c(C(F)(F)F)c2)cc1Nc1nccc(-c2cncnc2)n1 [bafetinib]
Method in brief: as §1

[2] = compound: Cc1cccc(CC(=O)N2CCc3c2ccc(-c2cn(C)c4ncnc(N)c24)c3F)n1
Method in brief: as §1

nilotinib = compound: Cc1cn(-c2cc(NC(=O)c3ccc(C)c(Nc4nccc(-c5cccnc5)n4)c3)cc(C(F)(F)F)c2)cn1 [nilotinib]
Method in brief: as §1

[3] = compound: Cc1nc(Nc2n[nH]c3c2CN(C(=O)N[C@H](CN(C)C)c2ccccc2)C3(C)C)c2sccc2n1
Method in brief: as §1

dasatinib = compound: Cc1nc(Nc2ncc(C(=O)Nc3c(C)cccc3Cl)s2)cc(N2CCN(CCO)CC2)n1 [dasatinib]
Method in brief: as §1

[4] = compound: Cc1ncc(-c2ccnc(Nc3ccc(S(C)(=O)=O)cc3)n2)n1C(C)C
Method in brief: as §1

[5] = compound: Cn1cc(-c2ccc3c(c2)CCN3C(=O)Cc2cccc(C(F)(F)F)c2)c2c(N)ncnc21
Method in brief: as §1

quisinostat = compound: Cn1cc(CNCC2CCN(c3ncc(C(=O)NO)cn3)CC2)c2ccccc21 [quisinostat]
Method in brief: as §1

tipifarnib = compound: Cn1cncc1[C@@](N)(c1ccc(Cl)cc1)c1ccc2c(c1)c(-c1cccc(Cl)c1)cc(=O)n2C [tipifarnib]
Method in brief: as §1

[6] = compound: NC(=O)Nc1cc(-c2cccc(F)c2)sc1C(=O)N[C@H]1CCCNC1
Method in brief: as §1

[7] = compound: NC(=O)c1cnc(N[C@@H]2CCCC[C@@H]2N)nc1Nc1cccc(-n2nccn2)c1
Method in brief: as §1

[8] = compound: NC1(c2ccc(-c3nc4ccn5c(=O)[nH]nc5c4cc3-c3ccccc3)cc2)CCC1
Method in brief: as §1

Measured: log2 fold change

PAFAH1B3 (UniProt Q15102)
inactive: lapatinib -0.034 | pictilisib -0.024 | crizotinib -0.01 | [1] -0.016 | duvelisib -0.024 | gandotinib -0.001 | tozasertib 0.054 | doramapimod 0 | bafetinib 0.048 | [2] -0.001 | nilotinib 0.005 | [3] 0.036 | dasatinib -0.057 | [4] -0.026 | [5] 0.03 | quisinostat 0.01 | tipifarnib -0.01 | [6] -0.009 | [7] 0.031 | [8] 0.021

OSBPL2 (UniProt Q9H1P3)
inactive: lapatinib 0.125 | pictilisib -0.019 | crizotinib -0.029 | [1] -0.078 | duvelisib -0.022 | gandotinib -0.065 | tozasertib 0.002 | doramapimod -0.023 | bafetinib -0.022 | [2] 0.142 | nilotinib -0.165 | [3] 0.018 | dasatinib -0.065 | [4] 0.042 | [5] -0.064 | quisinostat 0.028 | tipifarnib 0.019 | [6] 0.039 | [7] -0.016 | [8] -0.034

OTUD5 isoform 5 (UniProt Q96G74)
inactive: lapatinib -0.007 | pictilisib 0.01 | crizotinib -0.008 | [1] -0.024 | duvelisib -0.014 | gandotinib 0.048 | tozasertib -0.059 | doramapimod 0.045 | bafetinib -0.039 | [2] 0.029 | nilotinib 0.022 | [3] -0.009 | dasatinib 0.013 | [4] -0.058 | [5] 0.025 | quisinostat -0.005 | tipifarnib 0 | [6] 0.023 | [7] -0.001 | [8] -0.025

Random excerpt: 2 entries already listed.
OSBPL2 (UniProt Q9H1P3)
inactive: lapatinib 0.125 | pictilisib -0.019 | crizotinib -0.029 | [1] -0.078 | duvelisib -0.022 | gandotinib -0.065 | tozasertib 0.002 | doramapimod -0.023 | bafetinib -0.022 | [2] 0.142 | nilotinib -0.165 | [3] 0.018 | dasatinib -0.065 | [4] 0.042 | [5] -0.064 | quisinostat 0.028 | tipifarnib 0.019 | [6] 0.039 | [7] -0.016 | [8] -0.034

OTUD5 isoform 5 (UniProt Q96G74)
inactive: lapatinib -0.007 | pictilisib 0.01 | crizotinib -0.008 | [1] -0.024 | duvelisib -0.014 | gandotinib 0.048 | tozasertib -0.059 | doramapimod 0.045 | bafetinib -0.039 | [2] 0.029 | nilotinib 0.022 | [3] -0.009 | dasatinib 0.013 | [4] -0.058 | [5] 0.025 | quisinostat -0.005 | tipifarnib 0 | [6] 0.023 | [7] -0.001 | [8] -0.025

(listing goes on)

ORC2 (UniProt Q13416)
inactive: lapatinib 0.016 | pictilisib -0.049 | crizotinib -0.074 | [1] 0.063 | duvelisib -0.068 | gandotinib -0.087 | tozasertib -0.017 | doramapimod -0.007 | bafetinib -0.034 | [2] 0.011 | nilotinib 0 | [3] 0.009 | dasatinib -0.036 | [4] -0.014 | [5] -0.004 | quisinostat -0.016 | tipifarnib 0.004 | [6] 0.095 | [7] -0.004 | [8] -0.029

OCRL (UniProt Q01968)
inactive: lapatinib 0.008 | pictilisib -0.029 | crizotinib -0.047 | [1] -0.029 | duvelisib -0.013 | gandotinib -0.009 | tozasertib 0 | doramapimod 0.033 | bafetinib 0.001 | [2] 0.047 | nilotinib -0.095 | [3] 0.083 | dasatinib -0.044 | [4] -0.051 | [5] 0.053 | quisinostat -0.089 | tipifarnib 0.048 | [6] -0.018 | [7] -0.012 | [8] 0.024

PAFAH1B2 (UniProt P68402)
inactive: lapatinib 0.063 | pictilisib -0.08 | crizotinib -0.029 | [1] 0.023 | duvelisib 0.056 | gandotinib 0.011 | tozasertib 0.063 | doramapimod -0.031 | bafetinib 0.061 | [2] 0.107 | nilotinib -0.045 | [3] 0.051 | dasatinib 0.004 | [4] -0.008 | [5] -0.035 | quisinostat -0.052 | tipifarnib -0.016 | [6] 0.013 | [7] 0.055 | [8] -0.015

P2RX4 isoform 2 (UniProt Q99571)
inactive: lapatinib 0.038 | pictilisib -0.013 | crizotinib -0.187 | [1] -0.26 | duvelisib -0.034 | gandotinib 0.037 | tozasertib 0.059 | doramapimod 0.102 | bafetinib -0.027 | [2] 0.312 | dasatinib -0.112 | [5] -0.107 | quisinostat -0.328 | [6] -0.02 | [7] 0.082 | [8] -0.042

PABPC1 (UniProt H0YAR2)
inactive: lapatinib -0.03 | pictilisib 0.106 | crizotinib -0.009 | [1] -0.225 | gandotinib 0.159 | doramapimod 0.04 | bafetinib -0.066 | [2] -0.114 | nilotinib -0.034 | [3] 0.031 | [4] 0.037 | quisinostat 0.05 | tipifarnib 0.002 | [6] 0.09 | [7] 0.064 | [8] -0.001

PAPSS2 isoform 2 (UniProt O95340)
inactive: lapatinib -0.106 | pictilisib 0.083 | [1] -0.373 | gandotinib 0.167 | tozasertib 0.19 | bafetinib -0.134 | [2] 0.242 | [7] 0.1

PAGE4 (UniProt O60829)
inactive: lapatinib -0.012 | pictilisib -0.05 | crizotinib -0.028 | duvelisib 0.091 | gandotinib -0.102 | tozasertib -0.023 | doramapimod 0.11 | bafetinib -0.004 | [2] -0.134 | dasatinib -0.086 | [5] -0.035 | quisinostat -0.097 | [6] 0.036 | [7] 0.04 | [8] 0.004
active: [1] 0.344

PAK1 (UniProt Q13153)
inactive: lapatinib -0.037 | pictilisib -0.034 | crizotinib 0.019 | [1] -0.117 | duvelisib 0.044 | gandotinib -0.011 | tozasertib -0.02 | doramapimod -0.035 | bafetinib 0.002 | [2] -0.005 | nilotinib 0.028 | [3] 0.02 | dasatinib 0.046 | [4] 0.012 | [5] -0.024 | quisinostat 0.044 | tipifarnib -0.053 | [6] -0.028 | [7] -0.025 | [8] -0.012

NUP42 (UniProt O15504)
inactive: lapatinib 0 | pictilisib -0.012 | crizotinib -0.034 | [1] 0.105 | duvelisib -0.033 | gandotinib -0.064 | tozasertib 0.021 | doramapimod 0.03 | bafetinib -0.052 | [2] -0.052 | nilotinib -0.031 | [3] -0.027 | dasatinib 0 | [4] -0.02 | [5] 0.031 | quisinostat -0.056 | tipifarnib 0.021 | [6] 0.021 | [7] 0.002 | [8] 0.012

OPTN (UniProt Q96CV9)
inactive: lapatinib -0.015 | pictilisib -0.026 | crizotinib 0.017 | [1] -0.014 | duvelisib 0.034 | gandotinib 0.009 | tozasertib -0.005 | doramapimod -0.003 | bafetinib -0.035 | [2] 0.021 | nilotinib 0.009 | [3] 0.069 | dasatinib -0.026 | [4] 0.042 | [5] 0.025 | quisinostat 0.001 | tipifarnib 0.006 | [6] 0.003 | [7] 0.06 | [8] 0.029

OCIAD1 (UniProt D6RF01)
inactive: lapatinib -0.025 | pictilisib -0.175 | bafetinib 0.305 | nilotinib 0.075 | [3] -0.104 | [4] 0.121 | tipifarnib 0.062 | [7] -0.168

NVL (UniProt O15381)
inactive: lapatinib -0.025 | pictilisib -0.091 | crizotinib -0.047 | [1] -0.007 | duvelisib 0.086 | gandotinib -0.105 | doramapimod 0.056 | bafetinib 0.018 | [2] 0.11 | nilotinib -0.078 | [3] -0.044 | dasatinib -0.047 | [4] 0.043 | [5] 0.007 | quisinostat -0.099 | tipifarnib 0.034 | [6] 0.025 | [7] -0.033 | [8] 0.031

NUP37 (UniProt Q8NFH4)
inactive: lapatinib -0.036 | pictilisib -0.004 | crizotinib 0.029 | [1] -0.054 | duvelisib -0.006 | gandotinib 0.018 | tozasertib 0.038 | doramapimod 0.049 | bafetinib -0.056 | [2] 0.046 | nilotinib -0.003 | [3] -0.009 | dasatinib 0.002 | [4] -0.035 | [5] 0.017 | quisinostat 0.037 | tipifarnib -0.001 | [6] -0.004 | [7] -0.007 | [8] -0.004
